Experimental data published in the supplement of paper PMC12823440, “Inhibitors supercharge kinase turnover through native proteolytic circuits” (Nature, 2025).
Counter-ions that a name gives are not always drawn. Some of the results follow. Hit calls seldom repeat between salt and free forms of one compound.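 Kinases, fused to nanoluciferase, were expressed in K562 cells; luminescence was measured every 4 h from 2 to 18 h as percent of control (DMSO = 100%, positive control = 0%). A time point is decreased if signal falls significantly (2 sigma). Hits were called by the authors by a rule that is not shown; the count of time points alone does not decide it.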

Chains of the proteins cited; added tags and fusions are not shown. Lines headed by an entry give the natural chain unless they say otherwise; changes in a name come on top.
UniProt O15530: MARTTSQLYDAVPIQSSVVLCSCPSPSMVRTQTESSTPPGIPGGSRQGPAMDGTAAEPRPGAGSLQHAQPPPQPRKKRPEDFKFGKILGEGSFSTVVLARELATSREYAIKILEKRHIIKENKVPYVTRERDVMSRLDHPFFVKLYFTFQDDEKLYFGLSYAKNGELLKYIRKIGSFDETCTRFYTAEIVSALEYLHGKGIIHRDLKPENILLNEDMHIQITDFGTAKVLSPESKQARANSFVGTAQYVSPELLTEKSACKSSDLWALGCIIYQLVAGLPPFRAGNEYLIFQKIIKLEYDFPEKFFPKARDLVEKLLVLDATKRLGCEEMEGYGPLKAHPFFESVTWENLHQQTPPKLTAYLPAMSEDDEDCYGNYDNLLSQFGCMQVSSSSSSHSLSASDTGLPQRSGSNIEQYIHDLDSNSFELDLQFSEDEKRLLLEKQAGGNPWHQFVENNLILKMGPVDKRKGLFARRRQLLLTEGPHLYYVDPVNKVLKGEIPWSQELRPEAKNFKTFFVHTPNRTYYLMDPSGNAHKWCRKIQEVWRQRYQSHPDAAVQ
UniProt P42356, whole entry, looked up: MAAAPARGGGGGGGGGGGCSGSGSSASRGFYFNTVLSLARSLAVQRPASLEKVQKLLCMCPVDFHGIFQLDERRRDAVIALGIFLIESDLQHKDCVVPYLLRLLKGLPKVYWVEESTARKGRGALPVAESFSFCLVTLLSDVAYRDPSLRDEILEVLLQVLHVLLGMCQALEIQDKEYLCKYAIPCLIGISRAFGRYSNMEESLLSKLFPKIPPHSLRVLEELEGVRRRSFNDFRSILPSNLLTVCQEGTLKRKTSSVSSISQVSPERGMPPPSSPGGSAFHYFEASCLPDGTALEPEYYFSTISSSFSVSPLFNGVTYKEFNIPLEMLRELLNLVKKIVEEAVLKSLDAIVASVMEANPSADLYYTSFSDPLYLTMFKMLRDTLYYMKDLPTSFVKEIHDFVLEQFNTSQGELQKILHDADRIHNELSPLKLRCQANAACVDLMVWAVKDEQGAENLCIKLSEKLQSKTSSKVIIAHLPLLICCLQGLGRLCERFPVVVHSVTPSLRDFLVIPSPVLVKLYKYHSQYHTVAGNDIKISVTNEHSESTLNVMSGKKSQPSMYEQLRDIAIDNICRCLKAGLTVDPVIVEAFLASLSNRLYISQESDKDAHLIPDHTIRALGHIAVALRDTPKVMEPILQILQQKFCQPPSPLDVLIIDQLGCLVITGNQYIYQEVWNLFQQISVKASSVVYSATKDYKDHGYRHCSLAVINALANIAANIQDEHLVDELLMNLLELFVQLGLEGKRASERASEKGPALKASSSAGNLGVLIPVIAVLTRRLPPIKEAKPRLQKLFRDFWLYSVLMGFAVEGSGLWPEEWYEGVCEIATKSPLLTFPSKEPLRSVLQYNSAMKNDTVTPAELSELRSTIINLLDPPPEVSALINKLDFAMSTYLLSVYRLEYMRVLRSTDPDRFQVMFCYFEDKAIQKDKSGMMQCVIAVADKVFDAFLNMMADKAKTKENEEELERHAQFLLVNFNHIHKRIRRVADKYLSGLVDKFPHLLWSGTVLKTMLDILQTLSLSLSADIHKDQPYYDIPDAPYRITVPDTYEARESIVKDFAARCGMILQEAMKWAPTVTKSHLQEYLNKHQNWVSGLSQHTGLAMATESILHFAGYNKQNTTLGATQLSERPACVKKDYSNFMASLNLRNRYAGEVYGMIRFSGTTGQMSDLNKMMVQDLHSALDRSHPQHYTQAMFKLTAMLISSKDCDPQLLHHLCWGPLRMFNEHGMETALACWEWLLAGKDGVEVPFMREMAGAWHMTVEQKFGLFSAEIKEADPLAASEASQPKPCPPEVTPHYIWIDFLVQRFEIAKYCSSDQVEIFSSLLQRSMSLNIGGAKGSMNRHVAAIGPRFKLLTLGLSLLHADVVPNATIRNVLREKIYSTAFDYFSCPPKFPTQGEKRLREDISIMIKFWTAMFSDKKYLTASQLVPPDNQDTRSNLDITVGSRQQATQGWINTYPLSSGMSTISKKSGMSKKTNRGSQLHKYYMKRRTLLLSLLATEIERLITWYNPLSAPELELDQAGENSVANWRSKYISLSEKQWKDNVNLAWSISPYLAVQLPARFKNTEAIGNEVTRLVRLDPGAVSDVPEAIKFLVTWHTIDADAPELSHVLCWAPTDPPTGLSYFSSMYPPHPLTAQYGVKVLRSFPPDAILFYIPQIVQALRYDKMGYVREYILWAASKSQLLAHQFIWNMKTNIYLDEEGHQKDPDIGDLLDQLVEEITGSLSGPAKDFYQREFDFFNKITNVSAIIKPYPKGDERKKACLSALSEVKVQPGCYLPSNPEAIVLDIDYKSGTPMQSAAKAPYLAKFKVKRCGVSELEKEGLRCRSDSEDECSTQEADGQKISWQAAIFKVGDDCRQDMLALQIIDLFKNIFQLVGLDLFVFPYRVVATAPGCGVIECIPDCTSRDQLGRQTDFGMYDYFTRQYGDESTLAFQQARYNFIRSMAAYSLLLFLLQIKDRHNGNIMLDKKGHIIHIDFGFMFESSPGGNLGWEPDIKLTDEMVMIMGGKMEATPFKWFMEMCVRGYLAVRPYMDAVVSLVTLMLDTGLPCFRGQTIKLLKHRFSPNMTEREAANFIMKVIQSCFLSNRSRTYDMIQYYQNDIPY
UniProt Q9UBF8: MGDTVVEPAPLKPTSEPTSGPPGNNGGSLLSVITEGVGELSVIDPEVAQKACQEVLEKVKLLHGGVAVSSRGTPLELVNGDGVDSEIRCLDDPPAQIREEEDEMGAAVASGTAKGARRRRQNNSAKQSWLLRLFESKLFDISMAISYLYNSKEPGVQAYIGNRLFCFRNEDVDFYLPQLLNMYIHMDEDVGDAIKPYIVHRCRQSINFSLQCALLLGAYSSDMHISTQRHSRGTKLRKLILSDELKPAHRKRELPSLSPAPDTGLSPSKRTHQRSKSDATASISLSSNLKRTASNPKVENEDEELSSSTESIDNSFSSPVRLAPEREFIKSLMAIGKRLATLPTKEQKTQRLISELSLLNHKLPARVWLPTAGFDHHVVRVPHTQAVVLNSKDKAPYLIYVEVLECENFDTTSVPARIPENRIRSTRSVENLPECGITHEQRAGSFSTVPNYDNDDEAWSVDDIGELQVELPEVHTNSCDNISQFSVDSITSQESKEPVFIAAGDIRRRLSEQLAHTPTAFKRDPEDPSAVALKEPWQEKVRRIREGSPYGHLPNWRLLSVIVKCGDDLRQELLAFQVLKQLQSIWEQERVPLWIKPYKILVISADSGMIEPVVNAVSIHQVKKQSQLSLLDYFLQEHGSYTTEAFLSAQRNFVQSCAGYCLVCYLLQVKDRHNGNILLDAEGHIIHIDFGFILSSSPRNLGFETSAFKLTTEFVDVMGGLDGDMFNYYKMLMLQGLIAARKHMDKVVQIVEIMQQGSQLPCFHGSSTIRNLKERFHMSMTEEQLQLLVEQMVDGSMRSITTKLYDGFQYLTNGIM
UniProt P53350, whole entry: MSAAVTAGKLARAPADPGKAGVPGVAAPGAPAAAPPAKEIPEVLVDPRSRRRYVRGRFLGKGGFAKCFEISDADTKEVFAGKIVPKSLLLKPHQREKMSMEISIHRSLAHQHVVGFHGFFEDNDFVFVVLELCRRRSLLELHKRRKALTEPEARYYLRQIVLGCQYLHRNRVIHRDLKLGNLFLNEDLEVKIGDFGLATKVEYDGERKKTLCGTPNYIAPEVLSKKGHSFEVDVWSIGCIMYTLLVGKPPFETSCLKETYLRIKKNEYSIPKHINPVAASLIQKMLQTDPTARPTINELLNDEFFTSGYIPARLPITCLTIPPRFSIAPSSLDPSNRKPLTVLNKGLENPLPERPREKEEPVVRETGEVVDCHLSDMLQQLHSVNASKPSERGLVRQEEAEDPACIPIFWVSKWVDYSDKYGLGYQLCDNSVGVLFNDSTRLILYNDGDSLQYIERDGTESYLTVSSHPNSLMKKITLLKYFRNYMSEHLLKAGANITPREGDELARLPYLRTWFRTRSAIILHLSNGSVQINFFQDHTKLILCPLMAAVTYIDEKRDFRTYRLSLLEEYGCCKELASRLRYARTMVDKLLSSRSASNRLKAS
UniProt Q13131: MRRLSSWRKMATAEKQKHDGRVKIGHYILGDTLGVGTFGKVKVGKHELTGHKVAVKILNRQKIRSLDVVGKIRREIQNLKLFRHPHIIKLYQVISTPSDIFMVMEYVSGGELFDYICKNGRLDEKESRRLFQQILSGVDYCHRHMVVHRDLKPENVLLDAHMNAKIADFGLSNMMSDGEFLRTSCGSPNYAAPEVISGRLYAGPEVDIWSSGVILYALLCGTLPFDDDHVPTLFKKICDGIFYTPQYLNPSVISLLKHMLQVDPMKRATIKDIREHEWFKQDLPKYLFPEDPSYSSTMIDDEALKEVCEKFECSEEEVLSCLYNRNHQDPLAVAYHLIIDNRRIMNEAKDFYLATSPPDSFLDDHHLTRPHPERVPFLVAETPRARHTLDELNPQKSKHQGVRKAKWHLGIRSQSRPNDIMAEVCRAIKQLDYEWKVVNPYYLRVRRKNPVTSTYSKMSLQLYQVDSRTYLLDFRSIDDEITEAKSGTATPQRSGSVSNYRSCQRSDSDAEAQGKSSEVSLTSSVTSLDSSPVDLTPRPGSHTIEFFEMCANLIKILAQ
UniProt Q05397, whole entry, looked up: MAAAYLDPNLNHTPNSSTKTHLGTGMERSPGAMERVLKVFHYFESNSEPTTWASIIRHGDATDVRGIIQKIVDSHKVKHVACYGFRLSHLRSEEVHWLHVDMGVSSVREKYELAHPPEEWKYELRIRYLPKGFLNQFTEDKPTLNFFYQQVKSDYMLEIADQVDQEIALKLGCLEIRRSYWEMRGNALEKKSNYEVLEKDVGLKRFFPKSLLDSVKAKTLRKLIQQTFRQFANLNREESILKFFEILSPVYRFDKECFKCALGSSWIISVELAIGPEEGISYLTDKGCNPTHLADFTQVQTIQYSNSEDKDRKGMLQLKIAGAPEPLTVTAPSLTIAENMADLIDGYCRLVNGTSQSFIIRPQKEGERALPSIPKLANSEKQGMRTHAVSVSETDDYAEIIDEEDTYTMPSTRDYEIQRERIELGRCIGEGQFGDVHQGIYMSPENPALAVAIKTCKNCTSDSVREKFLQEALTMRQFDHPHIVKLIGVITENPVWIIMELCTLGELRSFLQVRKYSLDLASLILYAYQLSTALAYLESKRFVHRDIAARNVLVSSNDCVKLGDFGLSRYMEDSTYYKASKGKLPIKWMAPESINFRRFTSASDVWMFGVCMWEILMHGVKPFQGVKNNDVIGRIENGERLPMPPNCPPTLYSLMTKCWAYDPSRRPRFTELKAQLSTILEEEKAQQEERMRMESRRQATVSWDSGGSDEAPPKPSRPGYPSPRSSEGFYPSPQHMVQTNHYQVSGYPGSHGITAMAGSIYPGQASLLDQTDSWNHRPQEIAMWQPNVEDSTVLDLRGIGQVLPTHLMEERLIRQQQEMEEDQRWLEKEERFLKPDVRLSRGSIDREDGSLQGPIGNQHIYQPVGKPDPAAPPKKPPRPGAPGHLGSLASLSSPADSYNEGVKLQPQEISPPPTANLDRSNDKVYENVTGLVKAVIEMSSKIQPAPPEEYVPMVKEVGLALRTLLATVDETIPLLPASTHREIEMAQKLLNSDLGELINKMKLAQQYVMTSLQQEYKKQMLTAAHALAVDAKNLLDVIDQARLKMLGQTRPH

Key:
Assay in all cases: kinase-Nluc reporter destabilization hit call (1 = scored as downregulated) (binary); higher = compound decreases kinase abundance
Settings in all cases: K562; 2-18 h
PDPK1 = PDPK1 (UniProt O15530)
PIK4CA = PIK4CA (UniProt P42356)
PIK4CB = PIK4CB (UniProt Q9UBF8)
PLK1 = PLK1 (UniProt P53350)
PRKAA1 = PRKAA1 (UniProt Q13131)
PRKCA = PRKCA (UniProt P17252)
PTK2 = PTK2 (UniProt Q05397)
PTK2B = PTK2B (UniProt Q14289)
RAF1 = RAF1 (UniProt P04049)
[1] = molecular target: RAF1_S257L (clone: RAF1_mut) (UniProt P04049)

Measured: kinase-Nluc reporter destabilization hit call

CC(C)c1cc(/C=C(\C#N)C(=O)NCCCc2ccccc2)cc(C(C)C)c1O (10 µM)
inactive: PDPK1 = 0 | PIK4CA 0 | PIK4CB 0 | PLK1 = 0 | PRKAA1 = 0 | PRKCA 0 | PTK2 = 0 | PTK2B 0 | RAF1 = 0 | [1] 0

Oc1ccc(/C=C/c2cc(O)cc(O)c2)cc1 [Resveratrol] (10 µM)
inactive: PDPK1 = 0 | PIK4CA 0 | PIK4CB 0 | PLK1 = 0 | PRKAA1 = 0 | PRKCA 0 | PTK2 = 0 | PTK2B 0 | RAF1 = 0 | [1] 0

CNC(=O)c1cc2c(Oc3ccc(NC(=S)NC(=O)Cc4ccccc4)cc3F)ccnc2cc1OC [TAS-115 mesylate] (10 µM)
inactive: PDPK1 = 0 | PIK4CA 0 | PIK4CB 0 | PLK1 = 0 | PRKAA1 = 0 | PRKCA 0 | PTK2 = 0 | PTK2B 0 | RAF1 = 0 | [1] 0

Oc1cc(O)c2c(c1)OC1(c3ccc(O)c(O)c3)Oc3cc(O)c4c(c3C2C1O)OC(c1ccc(O)c(O)c1)C(O)C4 (stereo not given) [Procyanidin A1] (10 µM)
inactive: PDPK1 = 0 | PIK4CA 0 | PIK4CB 0 | PLK1 = 0 | PRKAA1 = 0 | PRKCA 0 | PTK2 = 0 | PTK2B 0 | RAF1 = 0 | [1] 0

Nc1n[nH]c2nc(-c3ccc(NS(=O)(=O)c4cc(Cl)ccc4F)cc3)cnc12 (10 µM)
inactive: PDPK1 = 0 | PIK4CA 0 | PIK4CB 0 | PLK1 = 0 | PRKAA1 = 0 | PRKCA 0 | PTK2 = 0 | PTK2B 0 | RAF1 = 0 | [1] 0

NC(=S)n1[nH]c(-c2ccc([N+](=O)[O-])cc2)c(N=Nc2cccc(Cl)c2)c1=O (2.5 µM)
inactive: PDPK1 = 0 | PIK4CA 0 | PIK4CB 0 | PLK1 = 0 | PRKAA1 = 0 | PRKCA 0 | PTK2 = 0 | PTK2B 0 | RAF1 = 0 | [1] 0

Nc1ncnc2c1c(COc1cccc(Cl)c1)nn2C1CCOCC1 (10 µM)
inactive: PDPK1 = 0 | PIK4CA 0 | PIK4CB 0 | PLK1 = 0 | PRKAA1 = 0 | PRKCA 0 | PTK2 = 0 | PTK2B 0 | RAF1 = 0 | [1] 0

CNc1nc(Nc2ccc(C(=O)N3CCOCC3)cc2OC)ncc1Cl (2.5 µM)
inactive: PDPK1 = 0 | PIK4CA 0 | PIK4CB 0 | PLK1 = 0 | PRKAA1 = 0 | PRKCA 0 | PTK2 = 0 | PTK2B 0 | RAF1 = 0 | [1] 0

Cc1cc(C)nc(NS(=O)(=O)c2ccc(NC(=S)NC(=O)COc3ccc(Br)cc3Cl)cc2)n1 (2.5 µM)
inactive: PDPK1 = 0 | PIK4CA 0 | PIK4CB 0 | PLK1 = 0 | PRKAA1 = 0 | PRKCA 0 | PTK2 = 0 | PTK2B 0 | RAF1 = 0 | [1] 0

CCc1cccc(CC)c1NC(=O)N1Cc2[nH]nc(NC(=O)c3ccc(N4CCN(C)CC4)cc3)c2C1 (2.5 µM)
inactive: PDPK1 = 0 | PIK4CA 0 | PIK4CB 0 | PLK1 = 0 | PRKAA1 = 0 | PRKCA 0 | PTK2 = 0 | PTK2B 0 | RAF1 = 0 | [1] 0

C[C@@H]1CC(=O)c2c(ccc3c2C(=O)c2cccc(O)c2C3=O)C1 [Ochromycinone] (10 µM)
inactive: PDPK1 = 0 | PIK4CA 0 | PIK4CB 0 | PLK1 = 0 | PRKAA1 = 0 | PRKCA 0 | PTK2 = 0 | PTK2B 0 | RAF1 = 0 | [1] 0

CC(C)=CC(=O)O[C@H]1Cc2cc3ccc(=O)oc3cc2OC1(C)C [Decursin] (10 µM)
inactive: PDPK1 = 0 | PIK4CA 0 | PIK4CB 0 | PLK1 = 0 | PRKAA1 = 0 | PRKCA 0 | PTK2 = 0 | PTK2B 0 | RAF1 = 0 | [1] 0

C=CC(=O)N1CCC[C@H](n2c(=O)n(-c3ccc(Oc4ccccc4)cc3)c3c(N)ncnc32)C1 [ONO-4059 (analog)] (10 µM)
inactive: PDPK1 = 0 | PIK4CA 0 | PIK4CB 0 | PLK1 = 0 | PRKAA1 = 0 | PRKCA 0 | PTK2 = 0 | PTK2B 0 | RAF1 = 0 | [1] 0

O=C1NC(=O)/C(=C/c2ccc3nccc(-c4ccncc4)c3c2)S1 (10 µM)
inactive: PDPK1 = 0 | PIK4CA 0 | PIK4CB 0 | PLK1 = 0 | PRKAA1 = 0 | PRKCA 0 | PTK2 = 0 | PTK2B 0 | RAF1 = 0 | [1] 0

N#CC(c1ccnc(OCc2ccc(CN3CCOCC3)cc2)n1)c1nc2ccccc2s1 (stereo not given) [Bentamapimod] (2.5 µM)
inactive: PDPK1 = 0 | PIK4CA 0 | PIK4CB 0 | PLK1 = 0 | PRKAA1 = 0 | PRKCA 0 | PTK2 = 0 | PTK2B 0 | RAF1 = 0 | [1] 0

CCN(CC)c1cc2oc(=O)c(-c3nc4ccccc4o3)cc2cc1C (2.5 µM)
inactive: PDPK1 = 0 | PIK4CA 0 | PIK4CB 0 | PLK1 = 0 | PRKAA1 = 0 | PRKCA 0 | PTK2 = 0 | PTK2B 0 | RAF1 = 0 | [1] 0

COc1nn(C)cc1Nc1nccc(-c2c[nH]c3c(NC(=O)[C@@H](C)N4CCN(C)CC4)cccc23)n1 (10 µM)
inactive: PDPK1 = 0 | PIK4CA 0 | PIK4CB 0 | PLK1 = 0 | PRKAA1 = 0 | PRKCA 0 | PTK2 = 0 | PTK2B 0 | RAF1 = 0 | [1] 0

O=C(Nc1nc(=O)n(Cc2ccc(Cl)cc2)s1)c1ccc(Cl)cc1 (10 µM)
inactive: PDPK1 = 0 | PIK4CA 0 | PIK4CB 0 | PLK1 = 0 | PRKAA1 = 0 | PRKCA 0 | PTK2 = 0 | PTK2B 0 | RAF1 = 0 | [1] 0

Cc1cc(Nc2ncnc3ccc(-c4ccc(CNCCS(C)(=O)=O)o4)cc23)ccc1Oc1ccn2ncnc2c1 [ARRY-380 (analog )] (2.5 µM)
inactive: PDPK1 = 0 | PIK4CA 0 | PIK4CB 0 | PLK1 = 0 | PRKAA1 = 0 | PRKCA 0 | PTK2 = 0 | PTK2B 0 | RAF1 = 0 | [1] 0

Quoted at random: two entries already listed, in no set order.
O=C(Nc1nc(=O)n(Cc2ccc(Cl)cc2)s1)c1ccc(Cl)cc1 (10 µM)
inactive: PDPK1 = 0 | PIK4CA 0 | PIK4CB 0 | PLK1 = 0 | PRKAA1 = 0 | PRKCA 0 | PTK2 = 0 | PTK2B 0 | RAF1 = 0 | [1] 0

C=CC(=O)N1CCC[C@H](n2c(=O)n(-c3ccc(Oc4ccccc4)cc3)c3c(N)ncnc32)C1 [ONO-4059 (analog)] (10 µM)
inactive: PDPK1 = 0 | PIK4CA 0 | PIK4CB 0 | PLK1 = 0 | PRKAA1 = 0 | PRKCA 0 | PTK2 = 0 | PTK2B 0 | RAF1 = 0 | [1] 0

(list continues)

COc1cc(N2CCOCC2)ccc1NC(=O)c1csc(-c2cccnc2)n1 [IRAK inhibitor 6] (10 µM)
inactive: PDPK1 = 0 | PIK4CA 0 | PIK4CB 0 | PLK1 = 0 | PRKAA1 = 0 | PRKCA 0 | PTK2 = 0 | PTK2B 0 | RAF1 = 0 | [1] 0

C[C@@H]1COCCN1c1nc(-c2cnc(N)cc2C(F)F)nc(N2[C@H](C)COC[C@@H]2C)n1 (2.5 µM)
inactive: PDPK1 = 0 | PIK4CA 0 | PIK4CB 0 | PLK1 = 0 | PRKAA1 = 0 | PRKCA 0 | PTK2 = 0 | PTK2B 0 | RAF1 = 0 | [1] 0

CN1CCC(c2ccccc2CC(C)(C)Nc2nc(N3CCOCC3)nc(-n3c(C(F)F)nc4ccccc43)n2)CC1 [Zandelisib] (10 µM)
inactive: PDPK1 = 0 | PIK4CA 0 | PIK4CB 0 | PLK1 = 0 | PRKAA1 = 0 | PRKCA 0 | PTK2 = 0 | PTK2B 0 | RAF1 = 0 | [1] 0

O=C1NC(=Nc2c(Cl)cccc2Cl)S/C1=C\c1ccc2nccnc2c1 (2.5 µM)
inactive: PDPK1 = 0 | PIK4CA 0 | PIK4CB 0 | PLK1 = 0 | PRKAA1 = 0 | PRKCA 0 | PTK2 = 0 | PTK2B 0 | RAF1 = 0 | [1] 0

Cc1ncc(NC(=O)NC2c3ccccc3-c3ccccc32)c(-c2ccccc2)n1 (10 µM)
inactive: PDPK1 = 0 | PIK4CA 0 | PIK4CB 0 | PLK1 = 0 | PRKAA1 = 0 | PRKCA 0 | PTK2 = 0 | PTK2B 0 | RAF1 = 0 | [1] 0

COc1cc2ncnc(-n3nc(-c4ccccn4)nc3N)c2cc1OC (10 µM)
inactive: PDPK1 = 0 | PIK4CA 0 | PIK4CB 0 | PLK1 = 0 | PRKAA1 = 0 | PRKCA 0 | PTK2 = 0 | PTK2B 0 | RAF1 = 0 | [1] 0

CCCCCCCC/C=C\CCCCCCCCCCCC(=O)O [Erucic acid] (10 µM)
inactive: PDPK1 = 0 | PIK4CA 0 | PIK4CB 0 | PLK1 = 0 | PRKAA1 = 0 | PRKCA 0 | PTK2 = 0 | PTK2B 0 | RAF1 = 0 | [1] 0

CCN(CC)c1ccc2cc(-c3nc4cc(C)ccc4o3)c(=O)oc2c1 (10 µM)
inactive: PDPK1 = 0 | PIK4CA 0 | PIK4CB 0 | PLK1 = 0 | PRKAA1 = 0 | PRKCA 0 | PTK2 = 0 | PTK2B 0 | RAF1 = 0 | [1] 0

O=C(N[C@@H](C1CC1)C(F)(F)F)c1cc(-c2cnn3cc(-c4ccc(F)cc4)cnc23)cs1 (10 µM)
inactive: PDPK1 = 0 | PIK4CA 0 | PIK4CB 0 | PLK1 = 0 | PRKAA1 = 0 | PRKCA 0 | PTK2 = 0 | PTK2B 0 | RAF1 = 0 | [1] 0

CC(C)C[C@@H](C(=O)Nc1ccn(C[C@@H](O)CO)n1)N1CC(Oc2ccccc2Cl)=CC1=O [Dorzagliatin] (10 µM)
inactive: PDPK1 = 0 | PIK4CA 0 | PIK4CB 0 | PLK1 = 0 | PRKAA1 = 0 | PRKCA 0 | PTK2 = 0 | PTK2B 0 | RAF1 = 0 | [1] 0
